Experimental data: PubChem BioAssay AID330 (DTP/NCI, 2004)
The list does not hold the whole screen: its compounds were picked by chemical class. Other doses and runs of a compound may be missing. T/C is the treated group as % of the vehicle group. Some entries give survivors of the animals treated and no T/C: the source files T/C as zero there, which appears to mark a toxic dose or a test without result, not a measured value. Some survivor counts are full or nearly so, which does not show that the dose was tolerated: survival well below the control is almost never listed, so the zero probably covers shortened survival too. Counts of survivors are from the toxicity check (mostly the fifth day) where no day follows; animals may have died later. Schedules are NCI's codes, taken here to give the interval after Q, in days (D) or hours (H), and the number of doses after X. Where survival is the endpoint, this PubChem deposit counts one and a half times the control or more as active, and values a quarter to a half above the control carry no call in these data; other NCI protocols may use other cut-offs. Some T/C values carry the count of animals alive at the toxicity check (mostly the fifth day); where neither a count nor a note follows, no animal had died by that day. Some doses were run more than once; the results are listed from low to high.

System: P388 leukemia ip, CD2F1 mice, survival T/C
Test: NCI In Vivo Anticancer Drug Screen. Data for tumor model P388 Leukemia (intraperitoneal) in CD2F1 (CDF1) mice
Details: T/C endpoint: median survival time, higher T/C = longer survival
[1] = dose: 12.5 mg/kg/injection, schedule: Q01DX009 (ip), vehicle: Klucel (hydroxypropylcellulose) (HPC)
[2] = dose: 25.0 mg/kg/injection, schedule: Q01DX009 (ip), vehicle: Klucel (hydroxypropylcellulose) (HPC)
[3] = dose: 50.0 mg/kg/injection, schedule: Q01DX009 (ip), vehicle: Klucel (hydroxypropylcellulose) (HPC)
[4] = dose: 100.0 mg/kg/injection, schedule: Q01DX009 (ip), vehicle: Klucel (hydroxypropylcellulose) (HPC)
[5] = dose: 5.0 mg/kg/injection, schedule: Q01DX009 (ip), vehicle: Klucel (hydroxypropylcellulose) (HPC)

CC(C)([N+](=O)[O-])C(C)([N+](=O)[O-])[N+](=O)[O-]
T/C (dose: 15.0 mg/kg/injection, schedule: Q01DX005 (ip), vehicle: saline with Tween-80): 100 % of control
T/C (dose: 30.0 mg/kg/injection, schedule: Q01DX005 (ip), vehicle: saline with Tween-80): 100 % of control
T/C (dose: 60.0 mg/kg/injection, schedule: Q01DX005 (ip), vehicle: saline with Tween-80): 91 [5 of 6 alive] and 104 % of control
survivor count (dose: 120.0 mg/kg/injection, schedule: Q01DX005 (ip), vehicle: saline with Tween-80): 0 of 6
survivor count (dose: 240.0 mg/kg/injection, schedule: Q01DX005 (ip), vehicle: saline with Tween-80): 0 of 6

O=P(Cl)(NC12CC3CC(CC(C3)C1)C2)c1ccccc1 (stereo not given)
T/C [1]: 100 % of control
T/C [2]: 90 % of control
T/C [3]: 102 % of control
T/C [4]: 98 % of control

COc1cccc(OC)c1N(CCCl)CCCl
T/C (dose: 0.62 mg/kg/injection, schedule: Q01DX009 (ip), vehicle: Klucel (hydroxypropylcellulose) (HPC)): 131 % of control
T/C (dose: 1.25 mg/kg/injection, schedule: Q01DX009 (ip), vehicle: Klucel (hydroxypropylcellulose) (HPC)): 88 and 135 % of control
T/C (dose: 2.5 mg/kg/injection, schedule: Q01DX009 (ip), vehicle: Klucel (hydroxypropylcellulose) (HPC)): 146 and 207 % of control [5 of 6 alive]
T/C [5]: 94 % of control
survivor count [5]: 6 of 6
survivor count (dose: 10.0 mg/kg/injection, schedule: Q01DX009 (ip), vehicle: Klucel (hydroxypropylcellulose) (HPC)): 6 of 6

O=[N+]([O-])C(F)(COC(=S)OCC(F)([N+](=O)[O-])[N+](=O)[O-])[N+](=O)[O-]
T/C (dose: 100.0 mg/kg/injection, schedule: Q04DX003 (ip), vehicle: saline): 98 % of control
T/C (dose: 200.0 mg/kg/injection, schedule: Q04DX003 (ip), vehicle: saline): 98 % of control
T/C (dose: 400.0 mg/kg/injection, schedule: Q04DX003 (ip), vehicle: saline): 100 % of control

ClP1(Cl)=NP(Cl)(Cl)=NP(Cl)(Cl)=N1
T/C [1]: 93 % of control
T/C [2]: 97 % of control
survivor count [3]: 6 of 6
survivor count [4]: 1 of 6

n1nc(-c2nn[nH]n2)n[nH]1
T/C (dose: 6.25 mg/kg/injection, schedule: Q01DX009 (ip), vehicle: saline with Tween-80): 99 % of control
T/C (dose: 12.5 mg/kg/injection, schedule: Q01DX009 (ip), vehicle: saline with Tween-80): 96 % of control
survivor count (dose: 25.0 mg/kg/injection, schedule: Q01DX009 (ip), vehicle: saline with Tween-80): 6 of 6
survivor count (dose: 50.0 mg/kg/injection, schedule: Q01DX009 (ip), vehicle: saline with Tween-80): 6 of 6
T/C (dose: 100.0 mg/kg/injection, schedule: Q01DX009 (ip), vehicle: saline with Tween-80): 88 % of control [5 of 6 alive]

CN(c1ccc(/C=C/c2ccccc2)cc1)P(=O)(Cl)Cl
T/C (dose: 12.5 mg/kg/injection, schedule: Q04DX003 (ip), vehicle: saline): 106 % of control
T/C (dose: 25.0 mg/kg/injection, schedule: Q04DX003 (ip), vehicle: saline): 101 % of control
T/C (dose: 50.0 mg/kg/injection, schedule: Q04DX003 (ip), vehicle: saline): 112 % of control
